The list shows a part of the results.
Columns and labels:
Assay in all cases: log2 fold change, soluble protein after heating vs DMSO (PISA); higher = thermal stabilisation; K562 lysate, 10 uM; active = over 0.2 and 3.5 SD of the protein, either way, in both replicates (recomputed)
[1] = compound: NCC(=O)Nc1ccc(-n2nc(C(F)(F)F)cc2-c2ccc3c(ccc4ccccc43)c2)cc1
Procedure, shortened: (§1)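 Thermal stability, expressed as log-two fold change relative to solvent controls, is given from duplicates. Crude K562 extract in PBS pH 7.4 with 1 mM MgCl2, at 1 mg/mL protein, was treated with 10 μM compound for 30 min and heated in aliquots for 3 min across 48°C-58°C. After pooling, adjustment to 0.5% NP-40 at 4°C and centrifugation at 21,000xg for 90 min, supernatant protein was measured by TMTpro 16plex LC-MS/MS with channel sums equalised.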

The chains behind the UniProt entries cited, without tags or fusion partners. Where a name states a change or a piece, a line headed by the entry shows the natural chain unless it says otherwise.
UniProt Q16629: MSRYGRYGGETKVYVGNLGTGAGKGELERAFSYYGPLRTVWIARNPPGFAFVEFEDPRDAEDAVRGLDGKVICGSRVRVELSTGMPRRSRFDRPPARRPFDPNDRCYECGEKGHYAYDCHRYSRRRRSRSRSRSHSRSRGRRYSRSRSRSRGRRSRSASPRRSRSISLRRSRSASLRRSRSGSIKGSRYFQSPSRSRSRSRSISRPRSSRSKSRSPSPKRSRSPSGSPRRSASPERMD
UniProt Q5M775: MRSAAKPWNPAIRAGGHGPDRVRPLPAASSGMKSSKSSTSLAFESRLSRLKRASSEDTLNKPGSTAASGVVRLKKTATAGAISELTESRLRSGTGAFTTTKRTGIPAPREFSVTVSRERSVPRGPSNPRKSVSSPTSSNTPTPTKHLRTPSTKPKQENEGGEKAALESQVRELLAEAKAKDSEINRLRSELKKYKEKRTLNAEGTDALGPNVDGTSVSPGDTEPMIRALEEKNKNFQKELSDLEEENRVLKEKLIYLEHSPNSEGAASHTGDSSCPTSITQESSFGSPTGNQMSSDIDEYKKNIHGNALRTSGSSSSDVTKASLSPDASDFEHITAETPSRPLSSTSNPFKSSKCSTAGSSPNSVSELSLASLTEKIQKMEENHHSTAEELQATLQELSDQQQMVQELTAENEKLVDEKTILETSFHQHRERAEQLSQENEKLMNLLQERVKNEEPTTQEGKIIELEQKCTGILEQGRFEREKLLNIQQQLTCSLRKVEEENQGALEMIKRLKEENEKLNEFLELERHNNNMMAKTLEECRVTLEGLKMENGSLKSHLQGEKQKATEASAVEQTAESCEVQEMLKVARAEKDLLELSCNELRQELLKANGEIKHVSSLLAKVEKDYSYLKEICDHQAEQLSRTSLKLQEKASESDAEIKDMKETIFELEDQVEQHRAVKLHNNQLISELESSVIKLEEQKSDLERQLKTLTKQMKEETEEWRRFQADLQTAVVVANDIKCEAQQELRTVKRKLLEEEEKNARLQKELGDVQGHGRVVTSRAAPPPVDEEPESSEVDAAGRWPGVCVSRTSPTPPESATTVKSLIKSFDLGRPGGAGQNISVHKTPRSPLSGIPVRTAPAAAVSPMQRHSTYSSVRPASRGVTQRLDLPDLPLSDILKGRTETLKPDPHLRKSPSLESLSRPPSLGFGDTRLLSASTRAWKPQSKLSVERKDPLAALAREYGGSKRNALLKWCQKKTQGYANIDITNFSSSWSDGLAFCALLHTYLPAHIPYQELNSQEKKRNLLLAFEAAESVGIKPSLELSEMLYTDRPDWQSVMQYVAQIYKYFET
UniProt Q9H2V7: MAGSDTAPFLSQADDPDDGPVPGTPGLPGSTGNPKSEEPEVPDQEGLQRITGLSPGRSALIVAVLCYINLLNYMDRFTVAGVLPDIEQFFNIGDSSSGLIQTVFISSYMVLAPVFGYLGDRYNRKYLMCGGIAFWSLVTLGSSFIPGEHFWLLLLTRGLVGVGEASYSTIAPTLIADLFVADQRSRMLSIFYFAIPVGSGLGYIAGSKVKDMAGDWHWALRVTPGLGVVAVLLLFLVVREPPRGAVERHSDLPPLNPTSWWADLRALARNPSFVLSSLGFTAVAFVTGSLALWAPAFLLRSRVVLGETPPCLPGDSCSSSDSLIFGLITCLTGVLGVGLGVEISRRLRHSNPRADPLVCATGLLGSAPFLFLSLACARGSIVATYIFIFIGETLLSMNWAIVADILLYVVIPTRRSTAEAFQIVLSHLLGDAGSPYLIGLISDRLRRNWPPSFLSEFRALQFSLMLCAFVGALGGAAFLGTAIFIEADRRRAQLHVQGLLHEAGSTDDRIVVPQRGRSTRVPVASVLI
UniProt Q9H8P0: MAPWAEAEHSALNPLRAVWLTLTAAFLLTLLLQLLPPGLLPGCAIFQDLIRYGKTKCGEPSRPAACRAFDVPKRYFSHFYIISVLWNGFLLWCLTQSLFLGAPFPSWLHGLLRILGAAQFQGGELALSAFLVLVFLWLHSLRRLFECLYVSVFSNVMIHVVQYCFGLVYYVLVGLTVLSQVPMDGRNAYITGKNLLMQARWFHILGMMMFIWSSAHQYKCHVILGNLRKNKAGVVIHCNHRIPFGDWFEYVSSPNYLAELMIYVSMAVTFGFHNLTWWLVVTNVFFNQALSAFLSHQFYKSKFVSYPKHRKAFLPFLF
UniProt Q8NBT2: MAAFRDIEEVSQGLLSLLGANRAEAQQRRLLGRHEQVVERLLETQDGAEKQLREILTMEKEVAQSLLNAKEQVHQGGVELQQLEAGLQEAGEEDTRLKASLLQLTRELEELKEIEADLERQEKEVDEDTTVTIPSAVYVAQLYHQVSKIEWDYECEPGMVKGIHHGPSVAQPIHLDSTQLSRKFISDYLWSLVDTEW
UniProt Q8WXA9: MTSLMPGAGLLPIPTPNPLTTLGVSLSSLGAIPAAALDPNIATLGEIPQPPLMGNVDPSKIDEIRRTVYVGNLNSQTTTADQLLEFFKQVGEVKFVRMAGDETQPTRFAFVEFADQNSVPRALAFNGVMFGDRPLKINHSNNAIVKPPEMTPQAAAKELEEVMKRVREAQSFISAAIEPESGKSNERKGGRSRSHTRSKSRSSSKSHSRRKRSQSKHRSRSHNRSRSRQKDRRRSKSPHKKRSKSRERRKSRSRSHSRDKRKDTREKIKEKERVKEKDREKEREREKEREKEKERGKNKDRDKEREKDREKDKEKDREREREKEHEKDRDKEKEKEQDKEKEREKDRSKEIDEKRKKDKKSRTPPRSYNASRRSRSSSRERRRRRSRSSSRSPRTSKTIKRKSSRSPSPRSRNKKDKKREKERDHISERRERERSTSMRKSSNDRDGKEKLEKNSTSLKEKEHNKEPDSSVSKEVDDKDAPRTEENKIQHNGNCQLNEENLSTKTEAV
UniProt P42229: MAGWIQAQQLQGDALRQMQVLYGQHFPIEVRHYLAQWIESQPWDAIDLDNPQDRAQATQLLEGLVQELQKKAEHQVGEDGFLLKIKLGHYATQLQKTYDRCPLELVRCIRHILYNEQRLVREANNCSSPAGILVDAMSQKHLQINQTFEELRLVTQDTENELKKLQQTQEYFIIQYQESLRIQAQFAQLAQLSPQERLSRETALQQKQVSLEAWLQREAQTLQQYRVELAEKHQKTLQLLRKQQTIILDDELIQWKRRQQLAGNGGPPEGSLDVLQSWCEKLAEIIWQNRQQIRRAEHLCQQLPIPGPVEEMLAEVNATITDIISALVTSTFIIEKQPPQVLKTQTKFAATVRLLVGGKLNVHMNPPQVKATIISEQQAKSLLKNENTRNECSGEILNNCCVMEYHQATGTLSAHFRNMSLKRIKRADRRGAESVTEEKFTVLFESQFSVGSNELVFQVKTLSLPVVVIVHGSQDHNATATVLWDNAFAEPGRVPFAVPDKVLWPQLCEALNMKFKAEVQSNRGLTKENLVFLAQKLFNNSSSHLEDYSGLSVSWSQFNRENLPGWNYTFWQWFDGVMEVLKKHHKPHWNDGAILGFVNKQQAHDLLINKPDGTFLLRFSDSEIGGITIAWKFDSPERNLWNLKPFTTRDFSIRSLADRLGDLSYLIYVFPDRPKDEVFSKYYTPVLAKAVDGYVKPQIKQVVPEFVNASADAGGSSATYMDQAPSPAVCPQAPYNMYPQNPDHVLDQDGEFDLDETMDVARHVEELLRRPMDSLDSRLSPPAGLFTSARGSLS
UniProt P37108: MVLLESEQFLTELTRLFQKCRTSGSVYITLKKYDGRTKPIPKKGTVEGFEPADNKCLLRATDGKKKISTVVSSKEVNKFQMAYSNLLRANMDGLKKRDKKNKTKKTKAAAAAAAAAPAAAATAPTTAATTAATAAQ
UniProt Q9BXP5: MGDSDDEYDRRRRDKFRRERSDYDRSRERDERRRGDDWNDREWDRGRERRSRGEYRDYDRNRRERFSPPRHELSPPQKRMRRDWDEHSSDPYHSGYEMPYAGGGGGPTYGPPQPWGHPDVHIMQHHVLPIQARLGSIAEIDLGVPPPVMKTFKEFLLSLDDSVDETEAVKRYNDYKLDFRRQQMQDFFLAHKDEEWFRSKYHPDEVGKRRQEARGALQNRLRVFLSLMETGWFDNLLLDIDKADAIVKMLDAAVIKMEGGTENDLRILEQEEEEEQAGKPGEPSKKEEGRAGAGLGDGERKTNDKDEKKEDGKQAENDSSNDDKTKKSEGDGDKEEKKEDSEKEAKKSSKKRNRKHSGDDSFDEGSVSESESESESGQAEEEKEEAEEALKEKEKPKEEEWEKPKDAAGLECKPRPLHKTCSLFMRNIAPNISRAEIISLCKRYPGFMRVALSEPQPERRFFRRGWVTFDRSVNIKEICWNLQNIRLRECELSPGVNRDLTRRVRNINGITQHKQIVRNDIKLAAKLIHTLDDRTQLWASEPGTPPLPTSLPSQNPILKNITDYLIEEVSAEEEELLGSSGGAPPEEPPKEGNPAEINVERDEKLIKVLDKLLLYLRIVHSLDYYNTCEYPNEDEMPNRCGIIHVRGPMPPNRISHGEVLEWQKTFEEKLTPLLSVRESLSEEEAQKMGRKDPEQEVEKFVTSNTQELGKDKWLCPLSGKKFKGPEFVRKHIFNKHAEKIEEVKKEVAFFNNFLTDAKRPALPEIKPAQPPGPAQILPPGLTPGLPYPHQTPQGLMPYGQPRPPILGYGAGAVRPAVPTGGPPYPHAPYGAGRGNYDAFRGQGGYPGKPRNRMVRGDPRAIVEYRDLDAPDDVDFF
UniProt O15270: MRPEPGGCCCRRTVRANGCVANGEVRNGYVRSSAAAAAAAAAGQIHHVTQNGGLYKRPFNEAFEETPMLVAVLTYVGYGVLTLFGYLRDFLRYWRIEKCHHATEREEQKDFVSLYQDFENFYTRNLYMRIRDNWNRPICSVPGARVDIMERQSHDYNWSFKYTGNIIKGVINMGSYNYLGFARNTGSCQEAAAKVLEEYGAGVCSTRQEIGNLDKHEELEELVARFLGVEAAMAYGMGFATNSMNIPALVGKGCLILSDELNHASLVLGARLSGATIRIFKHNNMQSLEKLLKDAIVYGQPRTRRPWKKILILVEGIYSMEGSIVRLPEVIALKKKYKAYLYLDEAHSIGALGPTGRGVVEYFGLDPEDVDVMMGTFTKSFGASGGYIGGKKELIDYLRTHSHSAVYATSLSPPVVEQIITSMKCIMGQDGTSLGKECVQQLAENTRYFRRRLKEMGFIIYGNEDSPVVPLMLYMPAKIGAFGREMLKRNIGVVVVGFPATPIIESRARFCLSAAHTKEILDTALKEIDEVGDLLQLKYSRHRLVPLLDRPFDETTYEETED
UniProt Q14849, whole entry, looked up: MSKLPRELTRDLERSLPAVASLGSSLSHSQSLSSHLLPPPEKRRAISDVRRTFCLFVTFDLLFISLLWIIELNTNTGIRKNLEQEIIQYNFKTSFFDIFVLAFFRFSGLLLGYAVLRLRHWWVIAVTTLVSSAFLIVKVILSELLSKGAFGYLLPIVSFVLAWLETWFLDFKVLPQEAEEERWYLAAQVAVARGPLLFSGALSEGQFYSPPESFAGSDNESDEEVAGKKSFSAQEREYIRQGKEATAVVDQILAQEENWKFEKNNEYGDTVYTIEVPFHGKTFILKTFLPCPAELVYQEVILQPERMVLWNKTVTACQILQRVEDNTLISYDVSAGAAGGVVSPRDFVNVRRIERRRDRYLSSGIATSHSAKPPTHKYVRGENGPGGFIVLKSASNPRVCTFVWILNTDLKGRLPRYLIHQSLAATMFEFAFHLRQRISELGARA
UniProt P52630: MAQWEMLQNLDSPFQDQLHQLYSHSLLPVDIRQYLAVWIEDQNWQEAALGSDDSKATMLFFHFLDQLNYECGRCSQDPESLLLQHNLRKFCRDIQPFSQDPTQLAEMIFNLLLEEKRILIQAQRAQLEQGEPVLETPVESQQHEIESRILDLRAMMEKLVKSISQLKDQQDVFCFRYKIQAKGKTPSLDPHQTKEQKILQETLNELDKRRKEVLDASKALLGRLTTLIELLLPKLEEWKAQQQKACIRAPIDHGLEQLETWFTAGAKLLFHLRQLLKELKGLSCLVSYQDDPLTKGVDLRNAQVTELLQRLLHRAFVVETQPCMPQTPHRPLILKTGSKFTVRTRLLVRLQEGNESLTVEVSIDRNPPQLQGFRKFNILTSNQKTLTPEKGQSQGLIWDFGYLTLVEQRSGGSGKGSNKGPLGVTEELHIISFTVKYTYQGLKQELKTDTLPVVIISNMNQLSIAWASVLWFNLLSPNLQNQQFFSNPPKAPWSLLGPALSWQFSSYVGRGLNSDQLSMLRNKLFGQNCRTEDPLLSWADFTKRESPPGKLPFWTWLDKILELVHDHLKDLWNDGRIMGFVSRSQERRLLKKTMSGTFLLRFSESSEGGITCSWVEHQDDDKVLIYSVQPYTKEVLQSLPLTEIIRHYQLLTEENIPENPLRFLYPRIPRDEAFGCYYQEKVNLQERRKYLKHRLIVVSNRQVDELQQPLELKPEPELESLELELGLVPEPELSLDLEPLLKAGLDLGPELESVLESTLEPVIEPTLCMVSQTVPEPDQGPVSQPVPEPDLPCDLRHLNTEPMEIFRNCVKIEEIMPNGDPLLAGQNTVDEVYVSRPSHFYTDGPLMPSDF

vorinostat = compound: O=C(CCCCCCC(=O)Nc1ccccc1)NO [vorinostat]
Procedure, shortened: as §1

silmitasertib = compound: O=C(O)c1ccc2c(c1)nc(Nc1cccc(Cl)c1)c1ccncc12 [silmitasertib]
Procedure, shortened: as §1

[2] = compound: O=C1NC(=O)C(c2cnc3ccccn23)=C1c1cn2c3c(cc(F)cc13)CN(C(=O)N1CCCCC1)CC2
Procedure, shortened: as §1

entospletinib = compound: c1cn2cc(-c3ccc4cn[nH]c4c3)nc(Nc3ccc(N4CCOCC4)cc3)c2n1 [entospletinib]
Procedure, shortened: as §1

Measured: log2 fold change

SPTA1 (UniProt P02549)
inactive: [1] -0.016 | vorinostat 0.052 | silmitasertib 0.052 | [2] 0.001 | entospletinib 0.019

SRSF7 (UniProt Q16629)
inactive: [1] 0.02 | vorinostat 0.134 | silmitasertib -0.052 | [2] -0.014 | entospletinib -0.013

SRCAP (UniProt Q6ZRS2)
inactive: [1] -0.013 | vorinostat -0.173 | silmitasertib 0.037 | [2] -0.024 | entospletinib -0.015

SRP68 (UniProt Q9UHB9)
inactive: [1] -0.038 | vorinostat -0.206 | silmitasertib 0.028 | [2] -0.02 | entospletinib 0.006

STAM2 (UniProt O75886)
inactive: [1] 0.001 | vorinostat 0.041 | silmitasertib -0.019 | [2] -0.018 | entospletinib 0.002

SPECC1 (UniProt Q5M775)
inactive: [1] -0.02 | vorinostat 0 | silmitasertib -0.022 | [2] -0.028 | entospletinib 0

SPNS1 (UniProt Q9H2V7)
inactive: [1] 0.086 | vorinostat -0.022 | silmitasertib 0.033 | [2] -0.025 | entospletinib -0.045

SRD5A3 (UniProt Q9H8P0)
inactive: [1] -0.177 | vorinostat 0.165 | silmitasertib 0.179 | [2] -0.205 | entospletinib -0.002

STAU2 (UniProt Q9NUL3)
inactive: [1] 0.11 | vorinostat -0.003 | silmitasertib -0.028 | [2] -0.078 | entospletinib -0.033

SPC24 (UniProt Q8NBT2)
inactive: [1] -0.016 | vorinostat -0.222 | silmitasertib -0.004 | [2] 0.005 | entospletinib -0.023

SPCS3 (UniProt P61009)
inactive: [1] -0.039 | vorinostat 0.116 | silmitasertib 0.022 | [2] -0.088 | entospletinib 0.029

SPIRE1 (UniProt Q08AE8)
inactive: [1] 0.092 | vorinostat 0.15 | silmitasertib -0.02 | [2] -0.129 | entospletinib 0.076

SREK1 isoform 2 (UniProt Q8WXA9)
inactive: [1] 0.064 | vorinostat 0.099 | silmitasertib -0.047 | [2] 0.029 | entospletinib 0.005

STIL isoform 2 (UniProt Q15468)
inactive: [1] -0.002 | vorinostat -0.168 | silmitasertib 0.015 | [2] 0.001 | entospletinib 0.014

Looked up one by one from the list above (two):
SPCS3 (UniProt P61009)
inactive: [1] -0.039 | vorinostat 0.116 | silmitasertib 0.022 | [2] -0.088 | entospletinib 0.029

SREK1 isoform 2 (UniProt Q8WXA9)
inactive: [1] 0.064 | vorinostat 0.099 | silmitasertib -0.047 | [2] 0.029 | entospletinib 0.005

The listing continues.

SSX2 (UniProt Q16385)
inactive: [1] 0.03 | vorinostat -0.017 | silmitasertib -0.004 | [2] -0.031 | entospletinib 0.01

SPATA5 (UniProt Q8NB90)
inactive: [1] 0.005 | vorinostat -0.247 | silmitasertib 0.048 | [2] -0.011 | entospletinib 0.013

STARD7 (UniProt Q9NQZ5)
inactive: [1] 0.048 | vorinostat 0.116 | silmitasertib 0.014 | [2] 0.041 | entospletinib 0.012

SRRM1 (UniProt Q8IYB3)
inactive: [1] -0.02 | vorinostat 0.122 | silmitasertib -0.022 | [2] -0.011 | entospletinib -0.007

STAT5A (UniProt P42229)
inactive: [1] 0.026 | vorinostat -0.106 | silmitasertib 0.013 | [2] 0.022 | entospletinib 0.025

SRP19 (UniProt P09132)
inactive: [1] 0.033 | vorinostat -0.137 | silmitasertib 0.082 | [2] 0.05 | entospletinib 0.031

SRP14 (UniProt P37108)
inactive: [1] 0.009 | vorinostat 0.081 | silmitasertib -0.015 | [2] -0.008 | entospletinib 0.032

SSBP2 (UniProt P81877)
inactive: [1] -0.076 | vorinostat -0.038 | silmitasertib -0.398 | [2] -0.117 | entospletinib -0.055

SRXN1 (UniProt Q9BYN0)
inactive: [1] -0.061 | vorinostat -0.11 | silmitasertib 0.028 | [2] -0.026 | entospletinib 0.014

SPEN (UniProt Q96T58)
inactive: [1] 0.078 | vorinostat -0.153 | silmitasertib 0.039 | [2] 0.047 | entospletinib -0.017

SRSF4 (UniProt Q08170)
inactive: [1] -0.046 | vorinostat -0.024 | silmitasertib 0.02 | [2] -0.085 | entospletinib -0.018

SPTBN2 (UniProt O15020)
inactive: [1] -0.037 | vorinostat -0.156 | silmitasertib -0.02 | [2] -0.016 | entospletinib 0.012

SSNA1 (UniProt O43805)
active: vorinostat -0.34
inactive: [1] -0.036 | silmitasertib 0 | [2] -0.023 | entospletinib -0.065

SRPK2 isoform 2 (UniProt P78362)
inactive: [1] -0.007 | vorinostat -0.028 | silmitasertib 0.131 | [2] -0.008 | entospletinib 0.002

SRPRB (UniProt Q9Y5M8)
inactive: [1] 0.013 | vorinostat 0.018 | silmitasertib 0.036 | [2] -0.029 | entospletinib -0.027

SRRT (UniProt Q9BXP5)
active: vorinostat -0.373
inactive: [1] -0.036 | silmitasertib 0.044 | [2] -0.008 | entospletinib 0.032

SPTBN4 (UniProt Q9H254)
inactive: [1] 0.013 | vorinostat 0.114 | silmitasertib 0.003 | [2] 0.036 | entospletinib -0.003

SSB (UniProt P05455)
inactive: [1] 0.027 | vorinostat 0.081 | silmitasertib 0.01 | [2] 0.032 | entospletinib 0.005

SREBF2 (UniProt Q12772)
inactive: [1] 0.084 | vorinostat -0.087 | silmitasertib -0.001 | [2] -0.054 | entospletinib -0.213

STAT5B (UniProt P51692)
inactive: [1] 0.014 | vorinostat -0.237 | silmitasertib 0.004 | [2] 0.038 | entospletinib 0.002

SRPK1 (UniProt Q96SB4)
inactive: [1] -0.043 | vorinostat -0.172 | silmitasertib 0.119 | [2] 0 | entospletinib 0.012

SRSF9 (UniProt Q13242)
inactive: [1] -0.182 | vorinostat -0.113 | silmitasertib 0.069 | [2] -0.035 | entospletinib 0.007

SRSF2 (UniProt Q01130)
inactive: [1] 0.023 | vorinostat 0.087 | silmitasertib -0.017 | [2] -0.043 | entospletinib -0.055

STC2 (UniProt O76061)
inactive: [1] -0.057 | vorinostat 0 | silmitasertib 0.095 | [2] -0.054 | entospletinib 0.128

SPIN1 (UniProt Q9Y657)
inactive: [1] -0.021 | vorinostat 0.013 | silmitasertib -0.013 | [2] 0.025 | entospletinib -0.076

SPTLC2 (UniProt O15270)
inactive: [1] -0.004 | vorinostat 0.158 | silmitasertib -0.026 | [2] 0.002 | entospletinib 0.007

SPG7 (UniProt Q9UQ90)
inactive: [1] -0.072 | vorinostat -0.066 | silmitasertib 0.109 | [2] -0.079 | entospletinib -0.005

SRM (UniProt P19623)
inactive: [1] 0.009 | vorinostat -0.029 | silmitasertib 0.008 | [2] 0.052 | entospletinib 0.001

STARD3 isoform 3 (UniProt Q14849)
inactive: [1] 0.022 | vorinostat 0.065 | silmitasertib 0.047 | [2] 0.03 | entospletinib -0.025

SRSF3 (UniProt P84103)
inactive: [1] -0.053 | vorinostat -0.053 | silmitasertib 0.003 | [2] 0.003 | entospletinib -0.045

STARD3NL (UniProt O95772)
inactive: [1] -0.015 | vorinostat 0.095 | silmitasertib 0.059 | [2] -0.036 | entospletinib -0.037

SPATA7 (UniProt Q9P0W8)
inactive: [1] 0.296 | vorinostat 0.21 | silmitasertib -0.091 | entospletinib 0.047

STAU1 (UniProt O95793)
inactive: [1] 0.045 | vorinostat -0.035 | silmitasertib 0.017 | [2] -0.009 | entospletinib 0.009

SSX5 isoform 2 (UniProt O60225)
inactive: [1] -0.111 | vorinostat -0.059 | silmitasertib 0.091 | entospletinib -0.035

SPRYD4 (UniProt Q8WW59)
inactive: [1] -0.003 | vorinostat 0.097 | silmitasertib -0.028 | [2] -0.033 | entospletinib -0.013

SPG11 (UniProt Q96JI7)
active: vorinostat -0.399
inactive: [1] -0.001 | silmitasertib 0.062 | [2] 0.04 | entospletinib -0.098

SSB (UniProt E7ERC4)
inactive: [1] -0.063 | vorinostat 0.012 | silmitasertib 0.105 | [2] -0.11 | entospletinib -0.092

STAT2 (UniProt P52630)
active: vorinostat -0.254
inactive: [1] -0.018 | silmitasertib 0.063 | [2] -0.017 | entospletinib 0.011

SPPL2B (UniProt Q8TCT7)
inactive: [1] -0.021 | vorinostat 0.023 | silmitasertib 0.015 | [2] -0.03 | entospletinib -0.001
